The target in the assay is T1, mouse CD40-His protein (mouse) (UniProt P27512).
T1 sequence: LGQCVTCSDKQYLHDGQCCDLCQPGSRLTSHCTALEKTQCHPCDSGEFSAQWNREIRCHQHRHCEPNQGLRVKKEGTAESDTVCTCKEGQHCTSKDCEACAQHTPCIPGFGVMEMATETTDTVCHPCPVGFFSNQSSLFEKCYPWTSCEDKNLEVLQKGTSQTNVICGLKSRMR
The experiment in a line: ELISA.

Sequences of proteins named here, by UniProt entry; tags and fusion partners are left off. Residues count along the entry.
UniProt P27548, residues 112-260: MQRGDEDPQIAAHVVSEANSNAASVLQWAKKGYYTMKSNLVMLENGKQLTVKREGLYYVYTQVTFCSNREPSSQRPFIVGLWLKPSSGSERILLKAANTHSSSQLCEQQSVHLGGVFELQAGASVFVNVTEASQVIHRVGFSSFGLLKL

These are yes or no findings as the source states them, for the method shown. Some binding calls cover weakened binding; strength is not graded here. Where a sequence is shown, tags or fusion partners need not be part of it.

For the substance “mouse CD40L-hFc protein (human Fc-conjugated) (from UniProt P27548 112-260) (Fc fusion)”, the binding entry is recorded as “binds”.

These data come from doi:10.1101/2025.07.30.663779.
